The supplement of paper PMC12819154, “High-throughput peptide-centric local stability assay extends protein–ligand identification to membrane proteins, tissues and bacteria” (Nature Structural & Molecular Biology, 2025)
The other results are listed elsewhere or left out. Most entries show no effect beyond the scatter of the controls.

Sequences of proteins named here, by UniProt entry; tags and fusion partners are left off. A change or cut given only in a name is not applied to a line headed by its entry.
UniProt Q9CZ13: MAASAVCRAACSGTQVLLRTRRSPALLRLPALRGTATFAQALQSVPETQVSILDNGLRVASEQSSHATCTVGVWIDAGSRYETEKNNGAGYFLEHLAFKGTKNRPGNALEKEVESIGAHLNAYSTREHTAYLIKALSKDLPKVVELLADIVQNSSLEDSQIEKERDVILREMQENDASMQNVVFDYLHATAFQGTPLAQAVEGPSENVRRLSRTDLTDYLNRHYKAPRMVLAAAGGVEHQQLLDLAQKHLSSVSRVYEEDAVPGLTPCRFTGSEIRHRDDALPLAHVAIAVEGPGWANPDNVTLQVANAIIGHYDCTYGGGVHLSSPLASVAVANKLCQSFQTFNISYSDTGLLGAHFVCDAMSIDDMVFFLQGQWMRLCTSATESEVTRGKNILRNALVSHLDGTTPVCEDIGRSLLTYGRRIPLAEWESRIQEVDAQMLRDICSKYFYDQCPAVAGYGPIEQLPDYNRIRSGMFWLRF
UniProt Q9CWS1: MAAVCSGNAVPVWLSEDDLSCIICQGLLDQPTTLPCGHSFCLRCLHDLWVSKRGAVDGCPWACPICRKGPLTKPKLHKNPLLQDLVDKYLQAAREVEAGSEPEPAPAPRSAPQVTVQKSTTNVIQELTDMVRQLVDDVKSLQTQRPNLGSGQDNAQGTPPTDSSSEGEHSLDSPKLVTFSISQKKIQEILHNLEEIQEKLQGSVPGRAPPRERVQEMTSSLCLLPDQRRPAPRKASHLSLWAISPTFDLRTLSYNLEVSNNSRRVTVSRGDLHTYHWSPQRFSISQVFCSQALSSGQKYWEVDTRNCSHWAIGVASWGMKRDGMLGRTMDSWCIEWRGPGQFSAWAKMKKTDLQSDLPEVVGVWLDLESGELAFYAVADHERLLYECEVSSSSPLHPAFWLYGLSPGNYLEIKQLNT
UniProt Q9CWY9: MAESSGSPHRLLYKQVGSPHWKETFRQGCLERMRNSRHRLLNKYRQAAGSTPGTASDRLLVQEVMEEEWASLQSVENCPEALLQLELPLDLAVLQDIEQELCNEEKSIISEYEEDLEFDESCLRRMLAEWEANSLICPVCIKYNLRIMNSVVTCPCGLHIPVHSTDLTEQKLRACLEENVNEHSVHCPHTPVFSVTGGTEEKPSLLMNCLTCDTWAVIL
UniProt Q9CWH6: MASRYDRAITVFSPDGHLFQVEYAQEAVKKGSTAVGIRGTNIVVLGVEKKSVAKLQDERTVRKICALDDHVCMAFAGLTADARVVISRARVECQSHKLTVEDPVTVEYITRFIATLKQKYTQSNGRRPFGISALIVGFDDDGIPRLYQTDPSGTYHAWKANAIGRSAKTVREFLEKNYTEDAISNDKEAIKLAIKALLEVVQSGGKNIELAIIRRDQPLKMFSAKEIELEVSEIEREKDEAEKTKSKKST
UniProt Q9CXW2, whole entry: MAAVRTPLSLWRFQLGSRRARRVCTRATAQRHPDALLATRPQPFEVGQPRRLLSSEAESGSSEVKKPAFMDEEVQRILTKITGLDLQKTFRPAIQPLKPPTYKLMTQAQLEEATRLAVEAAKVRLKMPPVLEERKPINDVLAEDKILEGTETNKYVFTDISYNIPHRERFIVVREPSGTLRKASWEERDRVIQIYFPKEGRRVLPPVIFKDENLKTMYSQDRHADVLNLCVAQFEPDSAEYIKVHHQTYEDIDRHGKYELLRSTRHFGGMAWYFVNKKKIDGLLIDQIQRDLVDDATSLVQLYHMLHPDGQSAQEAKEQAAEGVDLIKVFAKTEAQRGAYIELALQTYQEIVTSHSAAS
UniProt Q9CRD4: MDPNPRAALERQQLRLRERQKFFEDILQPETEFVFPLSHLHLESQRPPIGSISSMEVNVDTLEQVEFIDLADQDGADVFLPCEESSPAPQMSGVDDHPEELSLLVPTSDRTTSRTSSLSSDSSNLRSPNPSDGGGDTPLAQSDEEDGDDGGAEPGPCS
UniProt Q9CXE7: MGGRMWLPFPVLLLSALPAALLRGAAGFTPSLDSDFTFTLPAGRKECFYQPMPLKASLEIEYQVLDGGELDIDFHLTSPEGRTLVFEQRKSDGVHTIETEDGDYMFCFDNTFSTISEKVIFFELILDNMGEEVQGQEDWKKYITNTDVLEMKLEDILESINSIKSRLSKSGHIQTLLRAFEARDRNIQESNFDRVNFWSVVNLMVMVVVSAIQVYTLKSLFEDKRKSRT
UniProt Q9CYG7: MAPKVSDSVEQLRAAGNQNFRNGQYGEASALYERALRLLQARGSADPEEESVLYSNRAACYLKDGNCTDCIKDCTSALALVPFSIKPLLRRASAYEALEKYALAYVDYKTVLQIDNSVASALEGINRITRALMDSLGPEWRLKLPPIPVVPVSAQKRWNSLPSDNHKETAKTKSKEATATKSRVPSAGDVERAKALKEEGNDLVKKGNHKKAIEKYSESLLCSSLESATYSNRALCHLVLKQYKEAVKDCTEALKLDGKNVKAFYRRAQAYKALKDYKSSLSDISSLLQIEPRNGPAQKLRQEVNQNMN
UniProt Q9D0D4: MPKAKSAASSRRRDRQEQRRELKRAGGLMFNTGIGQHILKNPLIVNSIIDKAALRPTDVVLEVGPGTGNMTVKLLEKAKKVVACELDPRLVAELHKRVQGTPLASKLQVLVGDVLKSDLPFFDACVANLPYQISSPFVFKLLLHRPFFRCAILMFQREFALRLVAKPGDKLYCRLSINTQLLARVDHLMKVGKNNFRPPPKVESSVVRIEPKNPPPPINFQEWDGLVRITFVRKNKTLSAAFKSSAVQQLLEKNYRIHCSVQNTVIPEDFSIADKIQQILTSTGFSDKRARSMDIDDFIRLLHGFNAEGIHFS
UniProt Q9CZX5: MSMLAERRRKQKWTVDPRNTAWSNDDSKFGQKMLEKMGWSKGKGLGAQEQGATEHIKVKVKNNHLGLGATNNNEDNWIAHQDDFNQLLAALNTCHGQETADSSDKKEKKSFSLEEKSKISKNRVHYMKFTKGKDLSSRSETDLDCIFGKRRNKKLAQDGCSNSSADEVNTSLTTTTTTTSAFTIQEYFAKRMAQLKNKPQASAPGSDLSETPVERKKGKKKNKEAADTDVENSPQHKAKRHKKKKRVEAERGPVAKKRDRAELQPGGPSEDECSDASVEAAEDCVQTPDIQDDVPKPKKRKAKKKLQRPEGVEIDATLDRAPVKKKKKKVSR
UniProt Q9CXZ1, whole entry: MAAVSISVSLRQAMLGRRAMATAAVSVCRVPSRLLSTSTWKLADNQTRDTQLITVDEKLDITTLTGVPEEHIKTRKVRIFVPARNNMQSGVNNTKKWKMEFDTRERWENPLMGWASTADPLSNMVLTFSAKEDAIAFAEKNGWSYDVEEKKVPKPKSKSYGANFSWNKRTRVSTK

These targets were tested with CN[C@@H]1C[C@H]2O[C@@](C)([C@@H]1OC)n1c3ccccc3c3c4c(c5c6ccccc6n2c5c31)C(=O)NC4 [staurosporine] (assay: log2 fold change of tryptic peptide abundance, ligand vs vehicle (limited proteolysis) (log2 ratio); higher = more trypsin-susceptible (destabilized)). Conditions: ligand concentration: 20 uM; sample: mouse liver crude lysate; replicate design: treated separately.

| Target | log2 fold change |
| --- | --- |
| UniProt Q9CZ13 (peptide sequence: IQEVDAQMLR, peptide start residue: 433) | -0.326 |
| UniProt Q9CWS1 (peptide sequence: IQEILHNLEEIQEK, peptide start residue: 186) | 0.101 |
| UniProt Q9CWY9 (peptide sequence: QVGSPHWK, peptide start residue: 15) | 0.136 |
| UniProt Q9CWH6 (peptide sequence: ALLEVVQSGGK, peptide start residue: 194) | -0.0642 |
| UniProt Q9CXW2 (peptide sequence: TMYSQDR, peptide start residue: 216) | -0.506 |
| UniProt Q9CRD4 (peptide sequence: TSSLSSDSSNLR, peptide start residue: 115) | -0.188 |
| UniProt Q9CXE7 (peptide sequence: SGHIQTLLR, peptide start residue: 170) | -0.297 |
| UniProt Q9CYG7 (peptide sequence: ALMDSLGPEWR, peptide start residue: 131) | -0.174 |
| UniProt Q9D0D4 (peptide sequence: VQGTPLASK, peptide start residue: 98) | -0.278 |
| UniProt Q9CZX5 (peptide sequence: SETDLDCIFGK, peptide start residue: 139) | -0.1 |
| UniProt Q9D020 (peptide sequence: SHGLLIEQGIPK, peptide start residue: 151) | 0.495 |
| UniProt Q9CXZ1 (peptide sequence: NGWSYDVEEK, peptide start residue: 141) | -0.137 |
